{"source": "patent US12565659B2", "about": "“Recombinant lac polynucleotides and uses thereof to increase production of C-lignin in plants” (UNIVERSITY OF NORTH TEXAS, priority 2020, dated 2026)", "system": "Recombinant ChLAC8", "experiment": "Laccase activity assay and enzyme kinetics of recombinant ChLAC8 with monolignol substrates", "assay_type": "biochemical, Cleome hassleriana", "settings": "for Kcat/Km: Table 1", "method": "The open reading frame (ORF) of ChLAC8 (ChLAC8X1, XM_010555066.1) was amplified with the primers listed in Wang Supp. Table 4, ligated into the pENTR/D-TOPO vector (Invitrogen), and subcloned into pDEST17 fused with a 6× histidine tag at the N-terminus via Gateway LR recombination reaction (Invitrogen). The resulting vector (pDEST17-ChLAC8) was transformed into E. coli Rosetta (DE3) (Novagen) for protein expression. The transgenic E. coli strain was cultured in LB medium at 37° C. until OD600=0.4-0.6 and then supplemented with 0.5 mM isopropyl-β-D-thiogalactoside (IPTG) to induce the expression of ChLAC8 at 16° C. for 20 h. After induction, cell cultures were harvested by centrifugation at 10,000×g for 5 min at 4° C., and the resulting pellets were used for ChLAC8 protein purification via Ni-NTA resin (Thermo Scientific) according to the manufacturer's manual. The eluted protein was further desalted into 50 mM potassium phosphate buffer (pH 6.8) using a 30 kDa cut-off Amicon Ultra centrifugal filter (Millipore). The purity of recombinant ChLAC8 was examined by SDS-PAGE and the protein concentration was quantified by Bradford assays.\nLaccase activity assays were performed in a 100 μL reaction mixture consisting of 50 mM potassium phosphate buffer (pH 6.8), 10-20 μg of recombinant ChLAC8, and 200 μM monolignol substrate (caffeyl alcohol, coniferyl alcohol or sinapyl alcohol). The reactions were incubated at 25° C. for 30 min and terminated by adding 100 μL of methanol. The reaction products were injected into an HPLC or LC-MS/MS system for analysis as described below. The decrease in the level of the substrate was measured to calculate the enzyme activity. To determine kinetic parameters, ChLAC8 was incubated with different concentrations of caffeyl alcohol or sinapyl alcohol in a range from 25 to 800 μM. The enzyme assays were performed in triplicate at each substrate concentration, and the Vmax and Km values were calculated by Graphpad Prism 8 software with nonlinear regression analysis.\nThe reaction products were analyzed on an Agilent 1260 HPLC system equipped with a Luna C18(2) reverse-phase column (5 μm particle, 250×4.6 mm, Phenomenex) and separated in a mobile phase consisting of solvent A (1% in phosphoric acid in water) and solvent B (acetonitrile) with the following gradient: 5% B for 5 min, to 33% B in 25 min, to 45% B in 5 min, to 95% B in 5 min, keep at 95% B for 5 min, back to 5% B in 5 min.\nLC-MS/MS analysis was performed using an Agilent 1290 Infinity II liquid chromatography system coupled to an Agilent 6400 Series Triple Quadrupole System with electrospray ionization source in negative ionization mode. […] MS data were recorded in the range of m/z 100-700 (Perna et al., 2018).", "note": "The name of at least one read-out is uncertain."}
{"smiles": "OC/C=C/c1ccc(O)c(O)c1", "note": "[Caffeyl alcohol, caffeyl alcohol]", "values": [{"measurement": "catalytic efficiency (Kcat/Km)", "result": 92.53, "unit": "M⁻¹ s⁻¹"}, {"measurement": "Kcat/Km", "result": 92.53, "unit": "M⁻¹ s⁻¹"}]}
{"smiles": "COc1cc(/C=C/CO)cc(OC)c1O", "note": "[Sinapyl alcohol, sinapyl alcohol]", "values": [{"measurement": "catalytic efficiency (Kcat/Km)", "result": 218.0, "unit": "M⁻¹ s⁻¹"}, {"measurement": "Kcat/Km", "result": 218.0, "unit": "M⁻¹ s⁻¹"}]}
